Results on one sequence are retold here after publication PMC4682985.

By UniProt entry, the sequences of proteins in these tests, tags left out.
UniProt P03372, whole entry: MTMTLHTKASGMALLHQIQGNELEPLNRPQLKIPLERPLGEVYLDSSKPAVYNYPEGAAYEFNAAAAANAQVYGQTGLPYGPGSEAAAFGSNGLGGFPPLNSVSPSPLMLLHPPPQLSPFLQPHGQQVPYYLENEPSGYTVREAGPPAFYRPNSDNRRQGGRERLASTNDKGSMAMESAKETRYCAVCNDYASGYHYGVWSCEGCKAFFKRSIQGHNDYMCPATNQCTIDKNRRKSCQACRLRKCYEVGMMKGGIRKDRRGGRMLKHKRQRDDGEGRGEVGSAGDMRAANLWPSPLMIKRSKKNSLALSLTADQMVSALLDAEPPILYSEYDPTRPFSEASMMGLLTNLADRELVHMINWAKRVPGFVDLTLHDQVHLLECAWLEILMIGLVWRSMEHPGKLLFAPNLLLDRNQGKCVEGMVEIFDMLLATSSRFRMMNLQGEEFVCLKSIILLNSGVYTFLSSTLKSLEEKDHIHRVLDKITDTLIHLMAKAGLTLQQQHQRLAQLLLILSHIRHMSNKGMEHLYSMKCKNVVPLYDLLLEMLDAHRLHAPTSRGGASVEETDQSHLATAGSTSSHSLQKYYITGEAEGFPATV

Construct, isoform or probe ends are uncertain for at least one entry. At least one result comes from cells or an extract, where the contact may be indirect. At least one verdict rests on a figure or table, not on a statement of the authors.

For this series, the target named is Estrogen receptor alpha (ERa) (UniProt P03372). Nature of the series: EMSA supershift (nuclear extract). The settings on record: anti-ERa, extract from 10 nM E2-treated cells; LightShift Chemiluminescent EMSA kit; 3 ug nuclear extract, 20 fmol biotin probe, 100-fold competitor; 6% or 4% (supershift) native gel, 0.5x TBE; binding buffer; protein in an extract; label: 3' biotin.

For “GACGACGGAGAGCGGCGGGCCC (double strand) [AQP5 promoter ERE oligonucleotide]”, the binding result was “binds”.
